Test results reported in PubChem BioAssay AID1347076 (National Center for Advancing Translational Sciences (NCATS), 2019).
Screen size: about 400,000 compounds; about 13,000 (3.2%) were called active. Inconclusive means that the source gave no clear call. Such entries were picked first, then a sample of the others. The call rests on the fitted dose curve; in most records, active means well fitted cell-killing curve with a large enough effect; inconclusive means small, poorly fitted or top-dose-only effect, or effect the other way; inactive means flat fitted curve, though single readings scatter. Where the call is inconclusive, the potency comes from a doubtful curve fit.

Assay: qHTS assay for MDR1-selective chemotherapeutics: Primary screen using the drug-selected MDR subline cells KB-V1; further: nearly all actives have a fitted effect of over 60% in size
Settings: KB-V1 MDR cells viability, CellTiter-Glo, 72 h; activity change, negative = cytotoxicity: at 46.1 µM (top of the series)
In short: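 Cells of the MDR subline KB-V1 are plated, dosed with compound at multiple concentrations, and incubated 72 h at 37 degrees C; CellTiter-Glo is then added and luminescence read after 10 min.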
On the % scale 0 is the no-effect control and ±100 the full control effect; potency means the concentration at half of the fitted maximal effect.

**Q.** Which Potency does the source give for `CCN(CC)c1ccc(S(=O)(=O)N2CCOCC2)cc1NC(=O)COC(=O)/C=C/c1ccc(C)o1` here?
**A.** inconclusive: 32.6 µM [cytotoxic, single point]

**Q.** For `C=CCn1c(=O)c2c(nc3n2CCN3c2cccc(Cl)c2C)n(C)c1=O`, which Potency is on record?
**A.** active: 8.2 µM

**Q.** For `O=C(COc1ccccc1)NC(Cc1c[nH]c2ccccc12)C(=O)O` (centres undefined), which Potency is on record?
**A.** inconclusive: 20.6 µM [rising, partial curve, poor fit]

**Q.** Which Potency does the source give for `COC(=O)c1c(NC(=O)CN2CCCC(C)C2)c2c(C)cccc2n1C` (centres undefined) here?
**A.** inconclusive: 8.2 µM [cytotoxic, partial curve]

**Q.** Which Potency does the source give for `CCN(c1ccccc1)S(=O)(=O)c1ccc(Cl)c(C(=O)OCC(=O)c2[nH]c(C)c(C(C)=O)c2C)c1` here?
**A.** inconclusive: 11.6 µM [cytotoxic, partial curve]

**Q.** With `CCOC(=O)c1c(C)nn(-c2ccc(NC(=O)c3c(C)noc3C)cc2)c1C` as the compound, how does the “activity change, negative = cytotoxicity” value read?
**A.** inactive: -1.79%

**Q.** Which “activity change, negative = cytotoxicity” value does the source give for `NC(=O)COc1ccc(C(=O)/C=C2/C(=O)Nc3ccccc32)cc1` here?
**A.** inactive: -5.36%

**Q.** Which “activity change, negative = cytotoxicity” value does the source give for `Cc1ccc(OCC(=O)OC(C)CN2CCCCC2)cc1` (centres undefined) here?
**A.** inactive: 14.1%

**Q.** For `CC(=O)c1c(C)[nH]c(C(=O)COC(=O)C2(C)CC2(Cl)Cl)c1C` (centres undefined), which activity change, negative = cytotoxicity is on record?
**A.** inconclusive: -47.6%

**Q.** With `CC(C)n1cc(NC(=O)c2cc(-c3ccccc3)on2)cn1` as the compound, how does the Potency read?
**A.** active: 4.11 µM

**Q.** Which Potency does the source give for `Nc1ccc(Oc2ccc3nc(-c4ccccc4)c(-c4ccccc4)nc3c2)cc1` here?
**A.** inconclusive: 16.4 µM [cytotoxic, partial curve]

**Q.** Which “activity change, negative = cytotoxicity” value does the source give for `Cc1cccc(C)c1NC(=O)COC(=O)/C=C/c1ccc(S(=O)(=O)N2CCOCC2)cc1` here?
**A.** inactive: 27.6%

**Q.** For `CCCOc1ccc(C2C(C(=O)c3cc4ccccc4o3)=C(O)C(=O)N2c2cc(C)on2)cc1OC` (centres undefined), which “activity change, negative = cytotoxicity” value is on record?
**A.** inactive: -7.11%

**Q.** With `N#Cc1ccccc1CSc1nc(N2CCCCC2)nc(N2CCCCC2)n1` as the compound, how does the Potency read?
**A.** inconclusive: 18.4 µM [cytotoxic, partial curve, poor fit]

**Q.** For `CC(=O)Nc1cccc(C(=O)NC2CCCc3c2cnn3-c2cc(C)cc(C)c2)c1` (centres undefined), which “activity change, negative = cytotoxicity” value is on record?
**A.** inactive: -5.1%

**Q.** With `COc1ccc(-n2nc(C(=O)NCC(=O)NC(C)C)c3ccccc3c2=O)cc1Cl` as the compound, how does the “activity change, negative = cytotoxicity” value read?
**A.** inactive: 0.0114%

**Q.** For `CCCCOc1ccc(C(=O)OCC(=O)NC2CCCC2)cc1`, which “activity change, negative = cytotoxicity” value is on record?
**A.** inactive: 14%

**Q.** For `CCCOc1ccc(C(=O)N(Cc2cccs2)C2CCS(=O)(=O)C2)cc1` (centres undefined), which Potency is on record?
**A.** inconclusive: 8.2 µM [cytotoxic, partial curve]

**Q.** With `CCOC(=O)N1CCC(N(C(=O)Nc2ccccc2)C(C)CC)CC1` (centres undefined) as the compound, how does the Potency read?
**A.** active: 14.6 µM

**Q.** Which Potency does the source give for `N#CC1(NC(=O)CSc2nc3ncc(Cl)cc3[nH]2)CCCCC1` here?
**A.** inconclusive: 23.1 µM [cytotoxic, partial curve, poor fit]

**Q.** For `Cc1cc2nc(-c3ccccc3)c(Cc3cccc(Cl)c3)n2c(C)c1Br`, which “activity change, negative = cytotoxicity” value is on record?
**A.** inactive: 22%

**Q.** Which Potency does the source give for `COc1ccccc1NC(=O)C1=C(C)NC2=C(C(=O)CC(c3ccc(OC)c(OC)c3)C2)C1c1coc2ccccc2c1=O` (centres undefined) here?
**A.** inconclusive: 23.1 µM [rising, partial curve, poor fit]

**Q.** For `COc1ccc(C2=NN(C(=S)Nc3ccccc3)C(c3ccccc3)C2)cc1` (centres undefined), which “activity change, negative = cytotoxicity” value is on record?
**A.** inactive: -26.4%

**Q.** For `COc1ccc(CN(C)c2ncnc3sccc23)c(OC)c1OC`, which Potency is on record?
**A.** active: 4.61 µM

**Q.** Which Potency does the source give for `CCC(C)(C)C1CCC2(CC1)NC(=O)N(CC(=O)NCCc1ccc(OC)c(OC)c1)C2=O` (centres undefined) here?
**A.** active: 16.4 µM

**Q.** For `COc1ccc(-c2nc(CSCC(=O)NCc3ccco3)c(C)o2)cc1`, which Potency is on record?
**A.** active: 13 µM

**Q.** For `CC1CCN(C(=O)CCNC(=O)c2ccccc2Cl)CC1`, which Potency is on record?
**A.** inconclusive: 0.731 µM [cytotoxic, full curve, poor fit]

**Q.** Which Potency does the source give for `COc1ccc(S(=O)(=O)Nc2c(C(=O)O)[nH]c3ccc(OC)cc23)cc1` here?
**A.** inconclusive: 23.1 µM [rising, single point]

**Q.** With `N#C/C(=C\c1ccc(OCc2ccc(C(=O)O)cc2)cc1)C(=O)N1CCOCC1` as the compound, how does the Potency read?
**A.** inconclusive: 18.4 µM [cytotoxic, single point]

**Q.** For `O=C(NC(Cc1ccccc1)C(=O)O)/C(=C/c1cccc([N+](=O)[O-])c1)NC(=O)c1cccc(Br)c1` (centres undefined), which Potency is on record?
**A.** inconclusive: 16.4 µM [rising, single point]

**Q.** Which Potency does the source give for `CCN1CCN(C(=O)c2ccccc2N(Cc2ccccc2)S(=O)(=O)c2ccc(C)cc2)CC1` here?
**A.** inconclusive: 7.31 µM [cytotoxic, partial curve, poor fit]

**Q.** With `CCC1=NN2C(=N)/C(=C\c3ccc(OCCOc4ccccc4OC)cc3)C(=O)N=C2S1` as the compound, how does the Potency read?
**A.** inconclusive: 2.91 µM [cytotoxic, partial curve, poor fit]

**Q.** Which Potency does the source give for `O=C(OCCC12CC3CC(CC(C3)C1)C2)c1ccc(NCc2cc(O)ccc2O)cc1` here?
**A.** inconclusive: 29.1 µM [cytotoxic, single point]

**Q.** With `CCOc1ccc(NS(=O)(=O)c2ccc3c(c2)N(C(C)=O)CCO3)cc1` as the compound, how does the Potency read?
**A.** inconclusive: 29.1 µM [cytotoxic, single point]

**Q.** For `CN(C)c1nc2ccccc2c(N)c1-c1ccccc1`, which Potency is on record?
**A.** inconclusive: 13 µM [cytotoxic, partial curve]

**Q.** Which Potency does the source give for `Cc1[nH]c(-c2ccco2)nc1C(=O)O` here?
**A.** inconclusive: 35.5 µM [rising, single point]

**Q.** Which Potency does the source give for `CCNc1nc2c(c(=O)n(C)c(=O)n2C)n1CC(O)COc1ccccc1` (centres undefined) here?
**A.** active: 5.17 µM

**Q.** With `COc1cc(CN2CCNC(=O)C2CC(=O)NCCC2=CCCCC2)cc(OC)c1` (centres undefined) as the compound, how does the Potency read?
**A.** inconclusive: 11.6 µM [cytotoxic, partial curve, poor fit]

**Q.** For `Cc1ccc(C)c(S(=O)(=O)N2CCN(C(=O)Cc3c(F)cccc3Cl)CC2)c1`, which Potency is on record?
**A.** active: 7.31 µM

**Q.** With `CCC(CC)C(=O)N(C)c1c(C)nc2c(OCCOc3ccccc3)cccn12` as the compound, how does the Potency read?
**A.** inconclusive: 10.3 µM [cytotoxic, partial curve, poor fit]

**Q.** For `Cc1cccc(-c2nc3ccccc3c(=O)n2NC(=O)c2cccs2)c1`, which Potency is on record?
**A.** inconclusive: 20.6 µM [cytotoxic, partial curve]

**Q.** For `CCOc1ccccc1N(CC(=O)NCCSc1ccccn1)S(=O)(=O)c1ccc(C)cc1`, which “activity change, negative = cytotoxicity” value is on record?
**A.** inactive: -14.8%

**Q.** For `CCOC(=O)C1=C(C)Nc2ccccc2N/C1=N\S(=O)(=O)c1ccccc1`, which Potency is on record?
**A.** inconclusive: 25.9 µM [cytotoxic, single point]

**Q.** Which activity change, negative = cytotoxicity does the source give for `CCOc1ccc(S(=O)(=O)c2cn(Cc3ccc(C)cc3)c3ccc(OC)cc3c2=O)cc1` here?
**A.** inconclusive: -12.7%
